Mtb cholesterol medium: 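Phenotypic screen: M. tuberculosis growth, cholesterol and DPPC medium, 4 days; the read-out is not stated. Tested at 50 µM. The record gives no direction; compounds that gave an IC50 in retests scored well above the rest, so higher reads as more growth inhibition. Size under these conditions: about 69,000 compounds, about 370 of them at 50% or above in at least one test.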
Mtb glucose medium: 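Growth of Mycobacterium tuberculosis over 3 days (7H9 medium with glucose and tyloxapol); the read-out is not stated. Concentration: 50 µM. Direction is inferred from retests: higher values go with more growth inhibition. Of about 69,000 compounds tested this way, about 760 (1.1%) reached 50% or more in at least one test.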

Values are the deposited “Percent Effect”, in %. How 0% and 100% were set is not recorded. Most values in the screen are low, and negative values occur. The compounds are a random part of those screened. Two or more numbers in one place are separate tests of the same structure; such repeats can differ widely.

- Cc1cccc(C2(CNC(=O)CCNS(C)(=O)=O)CCCC2)c1 | Mtb cholesterol medium: 0.3277%; Mtb glucose medium: 18.74%
- CNc1ncc(C(=O)N2CCOC(C(=O)N3CCCCCC3)C2)cn1 (stereo not shown) | Mtb cholesterol medium: 8.637%; Mtb glucose medium: -3.201%
- COc1ccc(CC(=O)N(C)C2CCN(C)C2=O)cc1F (stereo not shown) | Mtb cholesterol medium: -16.38%; Mtb glucose medium: -18.45%
- Cc1cnccc1N1CCN(c2nccc(CCC(F)(F)F)n2)CC1 | Mtb cholesterol medium: 30.85%; Mtb glucose medium: 40.46%
- Cc1nn(C)c(N(C)C)c1CNCc1cccnc1OC(C)C | Mtb cholesterol medium: -20.2%; Mtb glucose medium: -9.223%
- CCCN(CCC)C(=O)CN(C)C1CCc2ccccc21 (stereo not shown) | Mtb cholesterol medium: 2.012%; Mtb glucose medium: 17.37%
- COCCn1cc(NC(=O)C(C)CCc2ccccc2F)ccc1=O (stereo not shown) | Mtb cholesterol medium: 7.341%; Mtb glucose medium: 7.086%
- O=C(CCc1cccc(Cl)c1Cl)N1CCOCC1c1ncon1 (stereo not shown) | Mtb cholesterol medium: 4.26%; Mtb glucose medium: -43.86% and 6.282%
- COc1ccc(C(=O)N2CCCC(n3nc(C)nc3C)C2)c(OC)c1 (stereo not shown) | Mtb cholesterol medium: 4.033%; Mtb glucose medium: -18.05%
- CC(c1ccccc1)N1CCC(NC(=O)CCc2ccsc2)CC1 (stereo not shown) | Mtb cholesterol medium: 2.922%; Mtb glucose medium: -18.74% and 4.082%
- COc1c(C)cnc(CN2CCn3c(nnc3C(C)C)C2)c1C | Mtb cholesterol medium: -8.387%; Mtb glucose medium: -13.75%
- O=S(=O)(CCN1CCN(c2ccccc2O)CC1)c1ccc(Br)cc1 | Mtb cholesterol medium: 8.497%; Mtb glucose medium: 21.78%
- CCN(Cc1cccc(C(=O)Nc2ncc(C)s2)c1)[C@H]1COC[C@@H]1O | Mtb cholesterol medium: 2.826%; Mtb glucose medium: 28.63%
- CC(=O)NCC(=O)N1CCOCC(Cc2ccc3c(ccn3C)c2)C1 (stereo not shown) | Mtb cholesterol medium: 8.679% and 1.326%; Mtb glucose medium: 15.04%
- [H][C@@]12CCN(S(=O)(=O)CC)CC[C@]1([H])[C@H](COCC1CC1)CN(C)C2=O | Mtb cholesterol medium: 7.358%; Mtb glucose medium: -37.54% and 2.561%
- O=C(NC1CC1)NC(c1ccc(F)cc1)C1CC1 (stereo not shown) | Mtb cholesterol medium: -0.1378%; Mtb glucose medium: 22.2%
- COc1cccc(NC(=O)NC2(c3noc(CN(C)C)n3)CCCC2)c1 | Mtb cholesterol medium: -1.446%; Mtb glucose medium: 14.42% and 5.898%
- O=C(O)C(F)(F)F.[H][C@@]12CN(Cc3c[nH]cn3)C[C@]1([H])OCCN2c1cnccn1 | Mtb cholesterol medium: 1.191%; Mtb glucose medium: 15.45%
- CC(=O)N1CCCC1C(=O)NCCOc1ccc(C(C)C)cc1 (stereo not shown) | Mtb cholesterol medium: -17.22%; Mtb glucose medium: 3.535%
- [H][C@]12CC[C@]([H])(CN(Cc3cscn3)C1)N(C(=O)c1ccnc(OC)c1)C2 | Mtb cholesterol medium: -21.62%; Mtb glucose medium: -26.19%
- CC(=O)NCC1CCC2(CCN(c3ncnc4oc(C)nc34)CC2)O1 (stereo not shown) | Mtb cholesterol medium: -31.41%; Mtb glucose medium: 18.57%
- CSCC(C)(O)CNS(=O)(=O)c1cccc(C)c1 (stereo not shown) | Mtb cholesterol medium: 3.218%; Mtb glucose medium: -5.2%
- COc1ccc(C(CO)NC(=O)Nc2cccnc2)cc1 (stereo not shown) | Mtb cholesterol medium: -7.027%; Mtb glucose medium: -31.63%
- O=C(CN1CCSCC1c1ccccc1)N1CCOCC1 (stereo not shown) | Mtb cholesterol medium: -6.422%; Mtb glucose medium: -8.78%
- Nc1ncc(C(=O)N2CCN(c3nccs3)CC2)cc1Cl | Mtb cholesterol medium: 8.63%; Mtb glucose medium: 6.844%
- Cc1c(C(=O)NC2CCCC2)nnn1-c1ccccc1 | Mtb cholesterol medium: 6.839%; Mtb glucose medium: 12.39% and 8.709%
- CCN(CC1CCOC1)C(=O)c1nc(-c2ccco2)sc1C (stereo not shown) | Mtb cholesterol medium: -10.82%; Mtb glucose medium: 0.2987%
- Cc1nnc(Cn2cc(I)cc(C)c2=O)o1 | Mtb cholesterol medium: 1.017%; Mtb glucose medium: 5.729% and -9.171%
- O=c1[nH]c2ccccc2c(=O)n1Cc1nnnn1C1CC1 | Mtb cholesterol medium: -17.28%; Mtb glucose medium: -1.397%
- O=C(NCC(O)c1ccsc1)c1sccc1OC(F)F (stereo not shown) | Mtb cholesterol medium: 25.06%; Mtb glucose medium: 20.31%
- CC(C)c1n[nH]c(C2CN(Cc3nnc(C4CC4)n3C)CCO2)n1 (stereo not shown) | Mtb cholesterol medium: 7.162%; Mtb glucose medium: 8.781%
- CCc1nc(C)sc1CN(Cc1ccncc1)C1CCN(C)CC1 | Mtb cholesterol medium: 8.073%; Mtb glucose medium: -28.09% and -4.998%
- [H][C@@]12CCN(Cc3cc(C)on3)C[C@]1([H])OCCN(c1cccnc1)C2=O | Mtb cholesterol medium: 3.454% and 8.708%; Mtb glucose medium: 19.76%
- COc1ccc(C)cc1NC(=O)c1c(C)cn(C)c1CC(=O)O | Mtb cholesterol medium: -7.588%; Mtb glucose medium: -9.83%
- O=C(Nc1cc(F)ccc1OCC1CCCO1)NC1CC1 (stereo not shown) | Mtb cholesterol medium: 0.6953%; Mtb glucose medium: -2.482%
- CN(Cc1ccc2c(c1)OCCO2)C(=O)Cn1ccccc1=O | Mtb cholesterol medium: -29.43%; Mtb glucose medium: -24.97%
- Cc1cc(-n2cncn2)ccc1C(=O)N(CC(F)(F)F)C(C)C | Mtb cholesterol medium: -18.35%; Mtb glucose medium: -21.05%
- COCCN1C(=O)CCC12CCCN(Cc1nccs1)CC2.O=C(O)C(F)(F)F (stereo not shown) | Mtb cholesterol medium: -3.118% and -22.48%; Mtb glucose medium: -20.64%
- CC(C)C1SCC(=O)Nc2c1cnn2C(C)C (stereo not shown) | Mtb cholesterol medium: -0.5976%; Mtb glucose medium: 2.631%
- CN1CC2(CCN(C(=O)c3cccc(-n4cccn4)c3)CC2)OC1=O | Mtb cholesterol medium: -12.39%; Mtb glucose medium: -1.649%
- CCc1nccc(CN2CCCC(CNC(=O)c3occc3C)C2)n1 (stereo not shown) | Mtb cholesterol medium: -8.042% and -0.8143%; Mtb glucose medium: -12.66%
- O=C(NCCc1ccccn1)C1(n2cnnn2)CCCCC1 | Mtb cholesterol medium: -14.74%; Mtb glucose medium: -27.23%
- CN1CCN(S(=O)(=O)c2cccc(S(=O)(=O)C3CCS(=O)(=O)C3)c2)CC1 (stereo not shown) | Mtb cholesterol medium: -11.89%; Mtb glucose medium: -15.37%
- CS(=O)(=O)N1CCCC12CCN(Cc1nccs1)CC2.O=C(O)C(F)(F)F | Mtb cholesterol medium: 3.325%; Mtb glucose medium: -6.549% and -4.36%

From ChEMBL document CHEMBL3988442, “University of Dundee, Small-Polar-MMV Screening Library” (2021).